Values from PubChem BioAssay AID1671195 (Yale University, 2021).

Purpose: 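Genes whose knockdown alters LDL uptake in liver cancer cells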 (primary screen)
System: human Huh7 hepatoma cells
Reagent: siRNA pool against human genes, 18 nM
Duration: about 2 to 2.5 days of knockdown, then 8 h LDL uptake
Treatment: DiI-labelled LDL at 30 µg/ml for 8 h, in lipoprotein-deficient serum medium
Detection: 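Fluorescent LDL signal imaged in cells, scaled to the plate median, robust z-score for each replicate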
Scale: robust z-score: higher = more LDL uptake after knockdown
Hit rule: 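a gene counts as active if at least two replicate z-scores exceed ±2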
The whole screen tested about 22,000 reagents; shown is an unselected part. About 1,510 of all reagents (6.9%) count as active. 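Active includes knockdowns raising or lowering LDL uptake; positive z-scores mean more uptake, negative mean less.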 The numbers tell different reagents against one gene apart. No sequences are given here.

| robust z-score, replicate 1 | robust z-score, replicate 2 | robust z-score, replicate 3 | Outcome | gene | reagent |
| --- | --- | --- | --- | --- | --- |
| 0.632 | -0.889 | 1.12 | inactive | OIP5 | 1 |
| -0.438 | -0.414 | 0.203 | inactive | SLC26A4 | 1 |
| 0.336 | -0.0608 | 0.348 | inactive | LOC442279 (retired record) | 1 |
| 2.19 | 2.59 | 0.86 | active | SPIC | 1 |
| -1.67 | -0.832 | -1.44 | inactive | BMP15 | 1 |
| -1.15 | -0.961 | -1.59 | inactive | MFAP3 | 1 |
| 1.25 | 2.19 | 1.68 | inactive | LOC442281 (retired record) | 1 |
| 0.259 | 0.2 | -0.386 | inactive | SPATA31D5P | 1 |
| 0.901 | 1.35 | 1.16 | inactive | LOC441306 (retired record) | 1 |
| -0.625 | -1.16 | -0.09 | inactive | CNTNAP4 | 1 |
| 0.198 | -1.01 | 0.459 | inactive | HTR1A | 1 |
| 0.903 | 0.611 | 0.965 | inactive | SLC25A25 | 1 |
| 1.13 | -0.00357 | 0.836 | inactive | B4GALT4 | 1 |
| -1.8 | -1.6 | -2.13 | inactive | NDUFAF3 | 1 |
| 0.286 | 0.273 | 0.142 | inactive | EMP2P1 | 1 |
| 0.757 | -0.152 | -0.15 | inactive | CAAP1 | 1 |
| -0.19 | -0.722 | -0.68 | inactive | PPM1M | 1 |
| 0.84 | 1.26 | 1.59 | inactive | GCC1 | 1 |
| 0.926 | 0.94 | 0.956 | inactive | LINC00298 | 1 |
| 3.61 | 3.72 | 3.09 | active | SPATA31C1 | 1 |
| 0.196 | -0.448 | -0.492 | inactive | GPR84 | 1 |
| -0.466 | -0.285 | -0.201 | inactive | ZNF254 | 1 |
| 0.882 | 0.764 | 1.57 | inactive | FBXO22 | 1 |
| 0.678 | 0.157 | 0.372 | inactive | GATA3 | 1 |
| 0.0739 | -0.187 | -0.217 | inactive | VANGL1 | 1 |
| -0.165 | 0.249 | -0.525 | inactive | LOC388709 (retired record) | 1 |
| -1.27 | -1.2 | -1.06 | inactive | LOC401456 (retired record) | 1 |
| 0.345 | 0.0919 | 0.325 | inactive | BTN2A3P | 1 |
| 1.84 | 0.852 | 1.76 | inactive | UST | 1 |
| 5.35 | 5.42 | 5.47 | active | TCIM | 1 |
| 1.49 | 2.56 | 0.412 | inactive | SLAMF6 | 1 |
| -0.88 | -0.0786 | -0.134 | inactive | LOC442375 (retired record) | 1 |
| -0.186 | -0.628 | -0.0473 | inactive | ADAMTS1 | 1 |
| -1.71 | -1.35 | -1.29 | inactive | AMY1A | 1 |
| -0.272 | -0.741 | -0.739 | inactive | CFAP43 | 1 |
| 0.937 | 1.85 | 1.76 | inactive | CFAP100 | 1 |
| 1.64 | -0.143 | 2.53 | inactive | BMP4 | 1 |
| -0.741 | -0.723 | -0.493 | inactive | ASCC2 | 1 |
| 2.23 | 1.25 | -1.66 | inactive | NMD3 | 1 |
| -0.49 | -0.113 | -0.481 | inactive | LSP1 | 1 |
| -1.15 | -1.08 | -0.849 | inactive | SLC16A6P1 | 1 |
| 2.34 | 2.18 | 2.07 | active | TTC34 | 1 |
| -0.713 | 0.54 | 0.429 | inactive | TTC34 | 2 |
| 1.61 | -0.337 | 0.00305 | inactive | MYOT | 1 |
| 2.66 | 2.15 | 1.56 | active | MAPK15 | 1 |
| 0.0874 | -0.0912 | -0.458 | inactive | CALHM6 | 1 |

Records above whose target name starts with A or a (3):
| robust z-score, replicate 1 | robust z-score, replicate 2 | robust z-score, replicate 3 | Outcome | gene | reagent |
| --- | --- | --- | --- | --- | --- |
| -0.186 | -0.628 | -0.0473 | inactive | ADAMTS1 | 1 |
| -1.71 | -1.35 | -1.29 | inactive | AMY1A | 1 |
| -0.741 | -0.723 | -0.493 | inactive | ASCC2 | 1 |
